In patent US20100206809A1, “METHOD AND APPARATUS FOR TREATING ORGANIC MATTER-CONTAINING WATER” (KURITA WATER INDUSTRIES LTD., priority 2007, published 2010):

Columns and labels:
[1] = Daily change in differential pressure across the RO membrane separator
[2] = Concentration of combined chlorine in activated carbon-treated water; assay type: physicochemical; conditions: industrial water

SMILES | Increase in differential pressure across the RO membrane separator ([1]; Example 1, combined chlorine 5 mg-Cl2/L, FIG. 3) | Concentration of combined chlorine in activated carbon-treated water ([2]; Example 4, combined chlorine in activated carbon feed water 1 mg/L, SV 20 hr^-1) [mg/L] | Concentration of combined chlorine in activated carbon-treated water ([2]; Example 5, combined chlorine in activated carbon feed water 3 mg/L, SV 20 hr^-1) [mg/L] | Concentration of combined chlorine in activated carbon-treated water ([2]; Example 8, SV through activated carbon column 20 hr^-1, combined chlorine 1 mg-Cl2/L) [mg/L] | Concentration of combined chlorine in activated carbon-treated water ([2]; Example 9, SV through activated carbon column 30 hr^-1, combined chlorine 1 mg-Cl2/L) [mg/L] | Slime on the clogged RO membrane separator ([1]; Comparative Example 1, free chlorine 0.5 mg-Cl2/L) | Differential pressure across the RO membrane separator ([1]; Comparative Example 1, free chlorine 0.5 mg-Cl2/L, about 7 months after the start of passing water, FIG. 3)
Cc1ccc(S(=O)(=O)[N-]Cl)cc1.[Na+] [Chloramine T, sodium N-chloro-p-toluenesulfonamide trihydrate] | no increase in differential pressure | 0.5 | 2 | 0.5 | 0.9 |  | 
OCl [NaClO, sodium hypochlorite, reference compound] |  |  |  |  |  | adhesion of slime to the clogged RO membrane separator was observed | about 0.4 MPa
